In US20110151497A1, “METABOLOMIC PROFILING OF PROSTATE CANCER” (THE REGENTS OF THE UNIVERSITY OF MICHIGAN, priority 2009, published 2011):

test system: prostate cancer cell lines (LNCaP, VCaP, DU145, PC3, 2RVV1) vs RWPE; experiment: GC-MS quantification of polyamines in prostate cell lines; format: cell-based

Q: `NCCCCNCCCN` [spermidine] was tested. Which “levels in non-invasive prostate cell line (RWPE) compared to invasive prostate cancer cell lines” value did it give?
A: higher levels

Q: `NCCCNCCCCNCCCN` [spermine] was tested. Which “levels in non-invasive prostate cell line (RWPE) compared to invasive prostate cancer cell lines” value did it give?
A: higher levels

Q: Which “levels in non-invasive prostate cell line (RWPE) compared to invasive prostate cancer cell lines” value does the source give for `NCCCCN` [putrescine] here?
A: higher levels
